Reference: PMC8529873, “Carbohydrate-Based NK1R Antagonists with Broad-Spectrum Anticancer Activity” (Journal of Medicinal Chemistry, 2021)

How the values were obtained:
Sk-OV-3 (ovarian cancer) = experiment: Resazurin cell viability assay, 96 h, Sk-OV-3; type: cell-based, human; details: read-out: IC50 (mean ± SEM) Sk-OV-3
Text: (§1) Cell viability was estimated with the resazurin assay. HaCaT human skin nonmalignant cells were used to study selectivity; these cells are derived from normal adult tissue and have a division rate similar to that of cancer cells.
(§2) Cell viability was estimated with the 3-(4,5-dimethylthiazol-2-yl)-2,5-diphenyltetrazolium bromide (MTT) assay or the resazurin assay. Both assays are redox-based colorimetric techniques based on the capability of viable cells to reduce the yellow product MTT or the blue reagent resazurin into a purple formazan dye or a pink-colored product, respectively. The number of live cells is directly proportional to the amount of the final product created. Exponentially growing cells were seeded in 96-well plates and were allowed to grow during 24 h. The cells were then treated with several concentrations of the tested compounds for 48–96 h (the incubation periods are specified in the figures and table legends) before measuring the cell viability using the MTT assay or the resazurin assay.
(§3) The OD of each well was measured at 540 and 620 nm on a multiwell plate spectrophotometer reader.

[1] = system: MDA-MB-231 (triple-negative breast cancer); experiment: Resazurin cell viability assay, 96 h, MDA-MB-231; type: cell-based, human; details: read-out: IC50 (mean ± SEM) MDA-MB-231
Text: as §1, §2, §3

`N.N.[Cl][Pt][Cl]` [Cisplatin] gave an IC50 (Sk-OV-3 (ovarian cancer)) of 4.3 ± 0.5 µM and an IC50 [1] of 10.2 ± 6.3 µM.
